Hit rate of the full screen: of about 330,000 compounds, about 1,000 (0.3%) were called active. The shares of active, inactive and inconclusive entries below differ from those in the screen. The call rests on the fitted dose curve; in most records, active means well fitted inhibition curve with a large enough effect; inconclusive means small, poorly fitted or top-dose-only effect; inactive means no such curve, though single readings can be large or run the other way; tested in mouse RAW 264.7 cells. Potencies of inconclusive entries are doubtful fits and often do not repeat.
Experiment: qHTS for Inhibitors of Cell Surface uPA Generation; further: nearly all actives have a fitted effect of over 55% in size
Conditions: cell surface uPA generation assay; series mostly up to 38.3 µM; activity change, negative = inhibition: at the top concentration
Method in brief: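 Murine RAW 264.7 cells are treated for 24 h with compound up to 38.3 uM final. Cell ATP, measured by ATP-Lite, remains high if blocking the uPA cascade prevents LF from reaching the cytoplasm.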
On the % scale 0 is the no-effect control and ±100 the full control effect; potency means the concentration at half of the fitted maximal effect.

Compound	Potency	activity change, negative = inhibition
Cc1ccc(NC(=O)c2ccc(F)cc2F)cc1	inconclusive: 10 µM [inhibitor, partial curve, poor fit]	
CCOC(=O)N1CCN(c2c(N3CC=C(c4ccccc4)CC3)c(=O)c2=O)CC1	inconclusive: 11.2 µM [inhibitor, partial curve, poor fit]	
Cc1cc(C)nc(SCC(=O)c2ccc(O)c(O)c2)n1	inconclusive: 6.31 µM [inhibitor, partial curve, poor fit]	
COc1ccc(-c2csc3ncnc(NCCN4CCOCC4)c23)cc1		inactive: -15.5%
COc1cccc(-c2cc(C(=O)N3CCN(S(=O)(=O)c4ccccc4)CC3)[nH]n2)c1	inconclusive: 25.1 µM [inhibitor, partial curve, poor fit]	
CCOC(=O)c1c(NC(=O)c2ccc(-n3cnnn3)cc2)sc2c1CCCC2		inactive: 8.8%
COc1ccc(CNC(=O)CCCn2ccc3cc(S(=O)(=O)N4CCCC4)ccc32)cc1	inconclusive: 12.6 µM [inhibitor, partial curve, poor fit]	
O=C(NCCOc1ccccc1)c1cc([N+](=O)[O-])ccc1N1CCOCC1		inactive: -5.41%
COC(=O)C(C)n1cnc2c(nnn2-c2ccc(C)cc2)c1=O (stereo not drawn)	inconclusive: 12.6 µM [inhibitor, single point]	
CC(CCc1ccco1)NC(=O)CCc1nnc2ccc(NCc3ccc(Cl)cc3)nn12 (stereo not drawn)	inconclusive: 0.0032 µM [inhibitor, full curve, poor fit]	
CC(=O)Nc1ccc(Nc2nc(-c3c(C)nc4ccccn34)cs2)cc1	inconclusive: 2 µM [inhibitor, partial curve]	
CC(C)Nc1nc(NC(N)=S)nc(NC(C)C)n1	inconclusive: 15.8 µM [inhibitor, partial curve, poor fit]	
Cc1ccc(S(=O)(=O)/N=C2\C=C(NS(=O)(=O)c3ccccc3)C(=O)c3ccccc32)cc1		inactive: -0.808%
COc1ccc(CN(C)C(=S)Nc2ccc(Cl)cc2)cc1	inconclusive: 0.316 µM [inhibitor, full curve, poor fit]	
CCCN(Cc1ccc(N(CC)CC)cc1)CC1CC1		inactive: 7.85%
Cc1c(NC(=O)c2ccc(-c3ccccc3)cc2)cccc1C(=O)O	inconclusive: 7.94 µM [inhibitor, partial curve, poor fit]	
Cc1cc(C(F)(F)F)n(-c2ccc(N)cc2)n1		inactive: 3.46%
COc1ccc(C(=O)c2c(C)c3cc(C)ccc3n2CC(O)CN2CCOCC2)cc1 (stereo not drawn)		inactive: 0.24%
CS(=O)(=O)N1CCC(Oc2cccc(C(=O)NCCCC3CCCC3)c2)CC1		inactive: -12.6%
CCC(C)NC(=O)Cn1ccc2cc(S(=O)(=O)N3CCCCCC3)ccc21 (stereo not drawn)		inactive: 0.354%
CCC1=C(C)CN(C(=O)NCCc2ccc(S(=O)(=O)NC(=O)NC3CCC(C)CC3)cc2)C1=O (stereo not drawn)	inconclusive: 11.2 µM [inhibitor, partial curve, poor fit]	
COc1cc(CNc2ccc(NC(C)=O)cc2)ccc1OCc1ccccc1C		inactive: 9.98%
O=c1c2ccccc2nc(/C=C/c2ccc(Br)cc2)n1CCCO	inconclusive: 7.08 µM [inhibitor, single point]	

Individual results from the entries so far:
For Potency, `COc1cccc(-c2cc(C(=O)N3CCN(S(=O)(=O)c4ccccc4)CC3)[nH]n2)c1` shows inconclusive: 25.1 µM [inhibitor, partial curve, poor fit]
For Potency, `COc1ccc(CNC(=O)CCCn2ccc3cc(S(=O)(=O)N4CCCC4)ccc32)cc1` shows inconclusive: 12.6 µM [inhibitor, partial curve, poor fit]
For Potency, `CC(=O)Nc1ccc(Nc2nc(-c3c(C)nc4ccccn34)cs2)cc1` shows inconclusive: 2 µM [inhibitor, partial curve]

Following part:

Compound	Potency	activity change, negative = inhibition
CC(=O)c1ccc(OCc2cc(C(=O)NCCn3nc(C)cc3C)no2)cc1		inactive: -7.02%
O=[N+]([O-])c1ccccc1/C=N/Nc1nc(N2CCCC2)nc(N2CCCC2)n1		inactive: 0.0168%
O=C(Nc1ccc2c(c1)OCCO2)c1c(F)cccc1F	inconclusive: 5.62 µM [inhibitor, partial curve, poor fit]	
Cc1nn(Cc2ccccc2)c(C)c1/C=N/NC(=O)CNc1cccc(C(F)(F)F)c1	inconclusive: 12.6 µM [inhibitor, single point]	
COc1ccc(C2c3ccc4ccccc4c3Oc3ncn(CCO)c(=N)c32)cc1OC (stereo not drawn)	inconclusive: 14.1 µM [inhibitor, partial curve, poor fit]	
CNC(C)C(=O)NC(C(=O)N1CCCC1C(=O)NC1CCCc2ccccc21)C(C)C (stereo not drawn)		inactive: -91.7%
C[N+]1(CC(O)COCC2COc3ccccc3O2)CCOCC1 (stereo not drawn)	inconclusive: 2.24 µM [inhibitor, full curve, poor fit]	
Cc1cccc(C#N)c1NC1=CC(=O)CC(C)(C)C1		inactive: -4.17%
O=c1c2ccccc2cnn1-c1nc2ccccc2[nH]1	inconclusive: 1.58 µM [inhibitor, partial curve, poor fit]	
CCc1cccc(NC(=O)C2CCN(c3ncnc4sc(C)c(C)c34)CC2)c1	inconclusive: 12.6 µM [inhibitor, partial curve, poor fit]	
O=C(Nc1ccc(OC(F)(F)F)cc1)N1CCN(c2ccnc3cc(Cl)ccc23)CC1	inconclusive: 28.2 µM [inhibitor, single point]	
O=[N+]([O-])c1ccc(O)c(-c2cc(C(F)(F)F)nc(-c3ccccc3)n2)c1	inconclusive: 5.01 µM [inhibitor, single point]	
COc1cc(CN2CCC(C(=O)NCCC(C)C)CC2)ccc1OCc1ccccc1	inconclusive: 3.55 µM [inhibitor, partial curve, poor fit]	
COC(=O)c1ccc(CSc2nnc(SCc3ccc(C(=O)OC)o3)s2)o1	inconclusive: 8.91 µM [inhibitor, partial curve, poor fit]	
Cc1ccc(C(=O)NC(=S)Nc2ccccc2N2CCOCC2)cc1C		inactive: -0.74%
Cc1cccc(N/C(N)=N/c2nc(CSc3ccc(Cl)cc3)cc(=O)[nH]2)c1	inconclusive: 2.82 µM [inhibitor, single point]	
Cc1ccc(OC(C)C(=O)N=Nc2c(O)[nH]c3ccc([N+](=O)[O-])cc23)cc1 (stereo not drawn)	inconclusive: 14.1 µM [inhibitor, single point]	
CC(C)(C)c1ccc(C(=O)Nc2cccc(-n3cnnn3)c2)cc1	inconclusive: 1 µM [inhibitor, partial curve, poor fit]	
COc1cc(C)c(Br)cc1S(=O)(=O)NCc1cccs1	inconclusive: 12.6 µM [inhibitor, partial curve, poor fit]	
COc1ccc(CNC(=O)Cn2cccc2C(=O)c2ccccc2)cc1		inactive: 5.48%
COc1ccccc1CNS(=O)(=O)c1cc(C(=O)NCC2CCCO2)c(Cl)cc1Cl (stereo not drawn)		inactive: -0.381%
CN(Cc1cccc(Cl)c1Cl)C(=O)c1cccc(S(=O)(=O)N2CCN(Cc3ccccc3)CC2)c1	inconclusive: 11.2 µM [inhibitor, single point]	
COc1cc(CC(=O)Nc2nc(C)cs2)cc(OC)c1OC		inactive: -1.06%

Compound	Potency	activity change, negative = inhibition
COc1ccc(NC(=O)n2ncc3c(C)cccc32)cc1OC	inconclusive: 31.6 µM [inhibitor, partial curve, poor fit]	
Cc1ccc(NC(=O)c2cccs2)cc1NC(=O)c1cccc(F)c1	inconclusive: 5.01 µM [inhibitor, single point]	
CC(=O)c1c(C)[nH]c(C(=O)Nc2ccc(C)cc2Br)c1C		inactive: -2.65%
COc1cccc(C2c3[nH]c4ccccc4c3C[C@H]3C(=O)N(CCCCCO)CC(=O)N23)c1 (stereo partly drawn)		inactive: -7.33%
O=c1c2[nH]c3ccccc3c2ncn1Cc1ccco1		inactive: -1.99%
Cc1nn(C(=O)c2cccs2)c(N)c1-c1ccccc1	inconclusive: 11.2 µM [inhibitor, single point]	
Cc1[nH]n(-c2ccccc2)c(=O)c1N=Nc1c(O)cc(S(=O)(=O)N(C)C)c2ccccc12	inconclusive: 3.98 µM [inhibitor, partial curve]	
Cc1cc(C)c2c(=O)[nH][nH]c2n1		inactive: 6.88%
CCc1noc(C)c1C(=O)OCC(=O)Nc1ccccc1SC	inconclusive: 7.08 µM [inhibitor, partial curve, poor fit]	
Cc1ccc(S(=O)(=O)c2nc(S(C)(=O)=O)sc2N2CCC(C)CC2)cc1	inconclusive: 2.82 µM [inhibitor, full curve]	
Cc1nc2ccccc2c2oc(C(=O)Nc3ccc(C(C)C)cc3)cc12	inconclusive: 0.316 µM [inhibitor, full curve, poor fit]	
Cc1ccc(S(=O)(=O)/N=C(\c2ccccc2)N(C)S(=O)(=O)c2ccccc2)cc1		inactive: -0.88%
O=C(Nc1ccccc1Cl)c1ccc(-c2ccccn2)s1		inactive: -4.56%
CCN(CC)c1ccc(NC(=O)COC(=O)COc2ccccc2[N+](=O)[O-])cc1		inactive: -6.86%
CCN(CC(=O)Nc1ccc(OC)cc1)C(=O)C1CCN(C(=O)c2ccc(Cl)cc2)CC1	inconclusive: 0.316 µM [inhibitor, full curve, poor fit]	
CC(C)c1ccc(NC2CCCN(C(=O)c3cnn(C(C)C)c3)C2)cc1 (stereo not drawn)	inconclusive: 0.631 µM [inhibitor, full curve]	
C=C1CCC2[C@](C)(CO)[C@H](O)CC[C@@]2(C)[C@@H]1C/C=C1\C(=O)OC[C@H]1O (stereo partly drawn)	inconclusive: 2.24 µM [inhibitor, full curve, poor fit]	
FC(F)C(F)(F)C1=CC(c2ccccc2)=NCCN1		inactive: -7.22%
O=C(NCCn1cc(SCc2ccccc2)c2ccccc21)c1c(F)cccc1F	inconclusive: 10 µM [inhibitor, partial curve, poor fit]	
Cc1ccc(C(=O)NC2CCCCC2)cc1	inconclusive: 6.31 µM [inhibitor, partial curve, poor fit]	
O=C(O)C1OC(Oc2c(-c3ccc(O)c(O)c3)oc3cc(O)cc(O)c3c2=O)C(O)C(O)C1O (stereo not drawn)	inconclusive: 3.16 µM [inhibitor, partial curve]	
COc1cc(/C=C(/C#N)c2nc3ccccc3[nH]2)ccc1OCC(=O)Nc1ccccc1C(C)C	inconclusive: 5.01 µM [inhibitor, single point]	

From PubChem BioAssay AID540303 (National Center for Advancing Translational Sciences (NCATS), 2011)
